Measurements from publication PMC3944740.

The chains behind the UniProt entries cited, without tags or fusion partners. Where a name states a change or a piece, a line headed by the entry shows the natural chain unless it says otherwise.
UniProt Q00646: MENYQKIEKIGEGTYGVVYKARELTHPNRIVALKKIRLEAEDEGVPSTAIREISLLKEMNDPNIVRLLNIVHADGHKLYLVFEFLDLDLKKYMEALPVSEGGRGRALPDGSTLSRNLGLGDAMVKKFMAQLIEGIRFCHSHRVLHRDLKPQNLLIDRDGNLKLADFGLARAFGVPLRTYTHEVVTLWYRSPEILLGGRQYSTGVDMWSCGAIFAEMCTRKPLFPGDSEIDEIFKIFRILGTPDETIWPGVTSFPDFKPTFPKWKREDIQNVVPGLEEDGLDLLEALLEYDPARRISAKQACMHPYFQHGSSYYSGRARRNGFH
UniProt Q5B6N5: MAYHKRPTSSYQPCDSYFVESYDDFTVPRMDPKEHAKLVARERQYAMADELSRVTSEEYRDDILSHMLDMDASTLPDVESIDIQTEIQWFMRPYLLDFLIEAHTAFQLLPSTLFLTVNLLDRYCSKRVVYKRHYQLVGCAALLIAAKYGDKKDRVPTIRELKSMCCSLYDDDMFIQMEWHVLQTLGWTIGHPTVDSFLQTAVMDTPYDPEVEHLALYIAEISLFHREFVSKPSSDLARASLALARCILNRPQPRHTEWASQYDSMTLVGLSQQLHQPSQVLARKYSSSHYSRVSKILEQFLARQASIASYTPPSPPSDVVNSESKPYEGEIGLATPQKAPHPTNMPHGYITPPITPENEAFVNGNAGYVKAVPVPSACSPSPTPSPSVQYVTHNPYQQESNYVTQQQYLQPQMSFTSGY

Assays:
Assay in all cases: affinity purification with mass spectrometry; endogenously DLAP tagged bait captured on S-protein agarose beads from lysates of lyophilized mycelia (conidiating static cultures, 28-32 hr), 15 min at 4° with protease inhibitors, extensive washing, eluted with SDS-PAGE sample buffer, single gel slice analysed by LC-MS/MS; compared with 9 other kinase purifications and a DLAP control
[1] = target: T1, CmkA-DLAP (Aspergillus nidulans) (UniProt Q00771)
T1 sequence: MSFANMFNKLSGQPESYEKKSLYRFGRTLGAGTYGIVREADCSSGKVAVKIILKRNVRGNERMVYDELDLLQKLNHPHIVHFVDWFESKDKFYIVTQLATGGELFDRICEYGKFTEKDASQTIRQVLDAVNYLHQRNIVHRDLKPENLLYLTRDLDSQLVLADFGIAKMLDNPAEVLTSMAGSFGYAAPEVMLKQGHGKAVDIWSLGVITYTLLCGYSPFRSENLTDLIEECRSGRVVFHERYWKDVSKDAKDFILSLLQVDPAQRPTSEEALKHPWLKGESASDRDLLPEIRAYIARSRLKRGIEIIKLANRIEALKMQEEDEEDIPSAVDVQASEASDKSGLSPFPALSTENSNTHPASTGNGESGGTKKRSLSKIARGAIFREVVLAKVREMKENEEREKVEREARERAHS

[2] = target: NimX^Cdk1-DLAP (Aspergillus nidulans) (UniProt Q00646)
[3] = target: T2, SepH-DLAP (Aspergillus nidulans) (UniProt Q5B4Z3)
T2 sequence: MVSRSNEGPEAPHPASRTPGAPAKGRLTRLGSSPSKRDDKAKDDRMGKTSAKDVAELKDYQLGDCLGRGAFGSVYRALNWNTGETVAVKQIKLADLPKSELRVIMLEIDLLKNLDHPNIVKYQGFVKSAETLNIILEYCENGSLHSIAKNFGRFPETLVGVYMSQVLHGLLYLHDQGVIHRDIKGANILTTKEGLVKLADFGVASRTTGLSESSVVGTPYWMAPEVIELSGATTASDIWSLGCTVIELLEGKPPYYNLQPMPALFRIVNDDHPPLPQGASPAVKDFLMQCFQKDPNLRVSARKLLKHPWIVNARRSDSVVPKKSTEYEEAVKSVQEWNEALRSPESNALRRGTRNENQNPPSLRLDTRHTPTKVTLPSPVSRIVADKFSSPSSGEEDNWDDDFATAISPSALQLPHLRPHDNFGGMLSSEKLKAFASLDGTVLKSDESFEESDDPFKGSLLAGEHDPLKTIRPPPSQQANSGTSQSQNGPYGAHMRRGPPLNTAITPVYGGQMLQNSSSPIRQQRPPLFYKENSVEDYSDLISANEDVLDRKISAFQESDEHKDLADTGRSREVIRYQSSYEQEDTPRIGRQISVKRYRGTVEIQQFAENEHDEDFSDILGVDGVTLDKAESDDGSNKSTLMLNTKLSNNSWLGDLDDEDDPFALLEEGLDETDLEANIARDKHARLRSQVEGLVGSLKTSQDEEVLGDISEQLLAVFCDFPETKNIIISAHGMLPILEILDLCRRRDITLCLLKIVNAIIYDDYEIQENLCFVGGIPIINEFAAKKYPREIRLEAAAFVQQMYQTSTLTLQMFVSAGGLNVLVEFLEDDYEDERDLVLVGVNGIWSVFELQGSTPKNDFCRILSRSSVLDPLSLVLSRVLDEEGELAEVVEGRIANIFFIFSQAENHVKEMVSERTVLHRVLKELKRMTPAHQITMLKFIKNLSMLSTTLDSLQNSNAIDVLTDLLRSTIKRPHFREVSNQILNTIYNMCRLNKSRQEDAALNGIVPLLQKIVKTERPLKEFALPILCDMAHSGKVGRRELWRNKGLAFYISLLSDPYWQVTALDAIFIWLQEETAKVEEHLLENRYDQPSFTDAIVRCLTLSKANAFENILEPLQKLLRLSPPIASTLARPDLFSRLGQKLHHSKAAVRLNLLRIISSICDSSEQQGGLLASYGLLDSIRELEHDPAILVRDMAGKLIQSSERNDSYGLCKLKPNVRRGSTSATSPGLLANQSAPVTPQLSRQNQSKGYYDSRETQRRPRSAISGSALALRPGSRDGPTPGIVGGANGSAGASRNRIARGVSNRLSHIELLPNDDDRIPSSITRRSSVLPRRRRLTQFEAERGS

Row | Molecule | binding [1] | binding [2] | binding [3]
1 | PucA (AN3795) (from UniProt Q5B6N5) | no binding | binds | no binding
2 | MobB (AN1370) (Aspergillus nidulans (endogenous)) | no binding |  | no binding
3 | NimE^(Cyclin B) (AN3648) (protein, UniProt P30284 1-478) MNENDENGPSTRLTRAKAAALTTDAPAANGALKKPLQTKKAATGANGTQRKRAALGDVSNVGKADNGETKDAKKATSKTGLTSKATMQSGGVQKLSRSNLSRTAVGAKDNNVKKPATEAKRPGSGSGMGSAMKRTSSQKSLQEKTIQQEEPPRKKVDIEKVVEKQAEAVSVKGDVKAGAQTEELEKPQDFVADLDTEDLDDPLMAAEYVVEIFDYLRELEMETLPNPDYIDHQPDLEWKMRGILVDWLIEVHTRFRLLPETLFLAVNIIDRFLSAEVVALDRLQLVGVAAMFIASKYEEVLSPHVANFSHVADETFSDKEILDAERHILATLEYNMSYPNPMNFLRRISKADNYDIQTRTLGKYLMEISLLDHRFLGYPQSQIGAAAMYLARLILDRGPWDATLAHYAGYTEEEIDEVFRLMVDYLHRPVCHEAFFKKYASKKFLKASIMTRQWAKKYHHLYIDSALTEPYNSIKDNE |  | binds | 

Results are given in words; binding and its absence hold for the method and conditions named. In cells and extracts the contact can be indirect. Here binding means that the protein was enriched with, or labelled near, the bait; the list need not be complete. For part of these data: A no says only that the protein was not detected with the bait.
